PubChem BioAssay AID504764 | Drosophila RNAi Screening Center – 2011
Screen: 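Knock-downs that raise or lower a Notch target reporter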 (primary screen). Cells: Drosophila Kc167 cells. Knock-down reagent: long dsRNA against Drosophila genes. Duration: about 5 days (4 days dsRNA, then 24 h after transfection). Conditions: transfection of constitutively active membrane-tethered Notch lacking the extracellular domain, read 24 h later. Measurement: 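Firefly luciferase from an E(spl)m3 reporter with active Notch, plus control-promoter and uninduced reporter wells for normalisation; unnormalised counts, duplicate wells a and b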. Scale: induced reporter light, run 1, well a and induced reporter light, run 1, well b: higher = more light from the Notch target reporter with active Notch; control promoter light, run 1, well a and control promoter light, run 1, well b: higher = more light from the viral control promoter (cell number, transfection, viability); uninduced reporter light, run 1, well a: higher = more light from the Notch target reporter without active Notch. Call rule: 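Hit if the duplicate-averaged log2 ratio of induced to control-promoter light gives a plate-wise z beyond ±2, or induced to uninduced beyond ±1.8; weak-control or discordant-duplicate wells dropped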. Calls: active = modifier hit (raised or lowered Notch signal); inactive = not a hit.
The deposit covers about 22,000 reagents; this is an unselected part of those with a known target gene and a result. Of all reagents, 403 (1.9%) were called active. 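Unnormalised raw counts per well; ratio z-scores behind the hit calls and whether each hit raises or lowers signal are not deposited.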 The numbers tell different reagents against one gene apart. The record does not give: the amount of reagent.

CG8064
- induced reporter light, run 1, well a: 10605
- induced reporter light, run 1, well b: 7378
- control promoter light, run 1, well a: 8410
- control promoter light, run 1, well b: 7985
- uninduced reporter light, run 1, well a: 842
- call: inactive

CG4269
- induced reporter light, run 1, well a: 1.90e5
- induced reporter light, run 1, well b: 2.00e5
- control promoter light, run 1, well a: 1.86e5
- control promoter light, run 1, well b: 1.62e5
- uninduced reporter light, run 1, well a: 15215
- call: inactive

Fis1
- induced reporter light, run 1, well a: 1.15e5
- induced reporter light, run 1, well b: 1.14e5
- control promoter light, run 1, well a: 1.71e5
- control promoter light, run 1, well b: 1.91e5
- uninduced reporter light, run 1, well a: 5870
- call: inactive

tio
- induced reporter light, run 1, well a: 41090
- induced reporter light, run 1, well b: 34185
- control promoter light, run 1, well a: 45740
- control promoter light, run 1, well b: 41045
- uninduced reporter light, run 1, well a: 3765
- call: inactive

CG33557
- induced reporter light, run 1, well a: 1.33e5
- induced reporter light, run 1, well b: 1.38e5
- control promoter light, run 1, well a: 3.05e5
- control promoter light, run 1, well b: 2.26e5
- uninduced reporter light, run 1, well a: 8310
- call: inactive

Gas41
- induced reporter light, run 1, well a: 1.65e5
- induced reporter light, run 1, well b: 1.35e5
- control promoter light, run 1, well a: 1.93e5
- control promoter light, run 1, well b: 2.16e5
- uninduced reporter light, run 1, well a: 16055
- call: inactive

dnk
- induced reporter light, run 1, well a: 1.97e5
- induced reporter light, run 1, well b: 1.60e5
- control promoter light, run 1, well a: 1.98e5
- control promoter light, run 1, well b: 1.91e5
- uninduced reporter light, run 1, well a: 13095
- call: inactive

Kif19A
- induced reporter light, run 1, well a: 1.73e5
- induced reporter light, run 1, well b: 1.78e5
- control promoter light, run 1, well a: 2.20e5
- control promoter light, run 1, well b: 1.84e5
- uninduced reporter light, run 1, well a: 11470
- call: inactive

twf
- induced reporter light, run 1, well a: 1.58e5
- induced reporter light, run 1, well b: 1.65e5
- control promoter light, run 1, well a: 1.20e5
- control promoter light, run 1, well b: 99240
- uninduced reporter light, run 1, well a: 10715
- call: inactive

Nepl15
- induced reporter light, run 1, well a: 26115
- induced reporter light, run 1, well b: 30390
- control promoter light, run 1, well a: 32825
- control promoter light, run 1, well b: 35485
- uninduced reporter light, run 1, well a: 2575
- call: inactive

RanBP3
- induced reporter light, run 1, well a: 305
- induced reporter light, run 1, well b: 420
- control promoter light, run 1, well a: 540
- control promoter light, run 1, well b: 450
- uninduced reporter light, run 1, well a: 328
- call: inactive

CG14740
- induced reporter light, run 1, well a: 1.04e5
- induced reporter light, run 1, well b: 1.28e5
- control promoter light, run 1, well a: 85805
- control promoter light, run 1, well b: 80300
- uninduced reporter light, run 1, well a: 9165
- call: inactive

CG14273
- induced reporter light, run 1, well a: 1.24e5
- induced reporter light, run 1, well b: 1.52e5
- control promoter light, run 1, well a: 74335
- control promoter light, run 1, well b: 99860
- uninduced reporter light, run 1, well a: 17465
- call: inactive

CG14969
- induced reporter light, run 1, well a: 1.29e5
- induced reporter light, run 1, well b: 1.23e5
- control promoter light, run 1, well a: 1.16e5
- control promoter light, run 1, well b: 58430
- uninduced reporter light, run 1, well a: 15325
- call: inactive

Ance-4
- induced reporter light, run 1, well a: 1.37e5
- induced reporter light, run 1, well b: 1.51e5
- control promoter light, run 1, well a: 1.74e5
- control promoter light, run 1, well b: 1.78e5
- uninduced reporter light, run 1, well a: 14205
- call: inactive

CG7214 #1
- induced reporter light, run 1, well a: 1.95e5
- induced reporter light, run 1, well b: 1.82e5
- control promoter light, run 1, well a: 1.63e5
- control promoter light, run 1, well b: 1.87e5
- uninduced reporter light, run 1, well a: 14925
- call: inactive

CG7214 #2
- call: inactive

CycK
- induced reporter light, run 1, well a: 73910
- induced reporter light, run 1, well b: 66020
- control promoter light, run 1, well a: 40920
- control promoter light, run 1, well b: 41455
- uninduced reporter light, run 1, well a: 5375
- call: inactive

Sorted by “control promoter light, run 1, well a” (highest first): some entries from above.
twf
- induced reporter light, run 1, well a: 1.58e5
- induced reporter light, run 1, well b: 1.65e5
- control promoter light, run 1, well a: 1.20e5
- control promoter light, run 1, well b: 99240
- uninduced reporter light, run 1, well a: 10715
- call: inactive

Nepl15
- induced reporter light, run 1, well a: 26115
- induced reporter light, run 1, well b: 30390
- control promoter light, run 1, well a: 32825
- control promoter light, run 1, well b: 35485
- uninduced reporter light, run 1, well a: 2575
- call: inactive
